Key:
[1] = system: MCF7; test: cells; format: functional, cell-based; settings: Homo sapiens, MCF7, 72 h
[2] = system: MDA-MB-231; test: cells; format: functional, cell-based; settings: Homo sapiens, MDA-MB-231, 72 h
[3] = system: DLD-1; test: cells; format: functional, cell-based; settings: Homo sapiens, DLD-1, 72 h
[4] = system: LoVo; test: cells; format: functional, cell-based; settings: Homo sapiens, 72 h
[5] = system: SK-OV-3; test: cells; format: functional, cell-based; settings: Homo sapiens, SK-OV-3, 72 h
[6] = system: SK-OV-3; test: cells; format: functional, cell-based; settings: Homo sapiens, SK-OV-3, 72 h; remark: listed apart in the source
[7] = system: Penicillium cyclopium; test: Antifungal activity against Penicillium cyclopium Westling after 7 days by microtiter method; format: functional; settings: 168 h
[8] = system: Aureobasidium pullulans; test: microbe, parasite or virus in culture; format: functional; settings: BAM10 ATCC 9348, 168 h
[9] = system: Chaetomium globosum; test: microbe, parasite or virus in culture; format: functional; settings: BAM12 ATCC 6205, 168 h

## COc1cc2c(c(OC)c1OC)-c1ccc(SC)c(=O)cc1[C@@H](N)CC2
[1]
  IC50: 670 nM
[2]
  IC50: 1260 nM
[3]
  IC50: 1180 nM
[4]
  IC50: 1020 nM
[5]
  IC50: 1.3 nM
[6]
  IC50: 9.6 nM
[7]
  MIC: > 4000 µg/mL
[8]
  MIC: > 4000 µg/mL
[9]
  MIC: > 4000 µg/mL

Reference: ChEMBL document CHEMBL4257561, “7-Deacetyl-10-alkylthiocolchicine derivatives - new compounds with potent anticancer and fungicidal activity” (Medchemcomm, 2018)
